Experimental data as given in article PMC11079228.
These are yes or no findings as the source states them, for the method shown. In cells and extracts the contact can be indirect. Some entries that bind do so weakly or less than the wild type.

Sequences of proteins named here, by UniProt entry; tags and fusion partners are left off.
UniProt Q9H2D6: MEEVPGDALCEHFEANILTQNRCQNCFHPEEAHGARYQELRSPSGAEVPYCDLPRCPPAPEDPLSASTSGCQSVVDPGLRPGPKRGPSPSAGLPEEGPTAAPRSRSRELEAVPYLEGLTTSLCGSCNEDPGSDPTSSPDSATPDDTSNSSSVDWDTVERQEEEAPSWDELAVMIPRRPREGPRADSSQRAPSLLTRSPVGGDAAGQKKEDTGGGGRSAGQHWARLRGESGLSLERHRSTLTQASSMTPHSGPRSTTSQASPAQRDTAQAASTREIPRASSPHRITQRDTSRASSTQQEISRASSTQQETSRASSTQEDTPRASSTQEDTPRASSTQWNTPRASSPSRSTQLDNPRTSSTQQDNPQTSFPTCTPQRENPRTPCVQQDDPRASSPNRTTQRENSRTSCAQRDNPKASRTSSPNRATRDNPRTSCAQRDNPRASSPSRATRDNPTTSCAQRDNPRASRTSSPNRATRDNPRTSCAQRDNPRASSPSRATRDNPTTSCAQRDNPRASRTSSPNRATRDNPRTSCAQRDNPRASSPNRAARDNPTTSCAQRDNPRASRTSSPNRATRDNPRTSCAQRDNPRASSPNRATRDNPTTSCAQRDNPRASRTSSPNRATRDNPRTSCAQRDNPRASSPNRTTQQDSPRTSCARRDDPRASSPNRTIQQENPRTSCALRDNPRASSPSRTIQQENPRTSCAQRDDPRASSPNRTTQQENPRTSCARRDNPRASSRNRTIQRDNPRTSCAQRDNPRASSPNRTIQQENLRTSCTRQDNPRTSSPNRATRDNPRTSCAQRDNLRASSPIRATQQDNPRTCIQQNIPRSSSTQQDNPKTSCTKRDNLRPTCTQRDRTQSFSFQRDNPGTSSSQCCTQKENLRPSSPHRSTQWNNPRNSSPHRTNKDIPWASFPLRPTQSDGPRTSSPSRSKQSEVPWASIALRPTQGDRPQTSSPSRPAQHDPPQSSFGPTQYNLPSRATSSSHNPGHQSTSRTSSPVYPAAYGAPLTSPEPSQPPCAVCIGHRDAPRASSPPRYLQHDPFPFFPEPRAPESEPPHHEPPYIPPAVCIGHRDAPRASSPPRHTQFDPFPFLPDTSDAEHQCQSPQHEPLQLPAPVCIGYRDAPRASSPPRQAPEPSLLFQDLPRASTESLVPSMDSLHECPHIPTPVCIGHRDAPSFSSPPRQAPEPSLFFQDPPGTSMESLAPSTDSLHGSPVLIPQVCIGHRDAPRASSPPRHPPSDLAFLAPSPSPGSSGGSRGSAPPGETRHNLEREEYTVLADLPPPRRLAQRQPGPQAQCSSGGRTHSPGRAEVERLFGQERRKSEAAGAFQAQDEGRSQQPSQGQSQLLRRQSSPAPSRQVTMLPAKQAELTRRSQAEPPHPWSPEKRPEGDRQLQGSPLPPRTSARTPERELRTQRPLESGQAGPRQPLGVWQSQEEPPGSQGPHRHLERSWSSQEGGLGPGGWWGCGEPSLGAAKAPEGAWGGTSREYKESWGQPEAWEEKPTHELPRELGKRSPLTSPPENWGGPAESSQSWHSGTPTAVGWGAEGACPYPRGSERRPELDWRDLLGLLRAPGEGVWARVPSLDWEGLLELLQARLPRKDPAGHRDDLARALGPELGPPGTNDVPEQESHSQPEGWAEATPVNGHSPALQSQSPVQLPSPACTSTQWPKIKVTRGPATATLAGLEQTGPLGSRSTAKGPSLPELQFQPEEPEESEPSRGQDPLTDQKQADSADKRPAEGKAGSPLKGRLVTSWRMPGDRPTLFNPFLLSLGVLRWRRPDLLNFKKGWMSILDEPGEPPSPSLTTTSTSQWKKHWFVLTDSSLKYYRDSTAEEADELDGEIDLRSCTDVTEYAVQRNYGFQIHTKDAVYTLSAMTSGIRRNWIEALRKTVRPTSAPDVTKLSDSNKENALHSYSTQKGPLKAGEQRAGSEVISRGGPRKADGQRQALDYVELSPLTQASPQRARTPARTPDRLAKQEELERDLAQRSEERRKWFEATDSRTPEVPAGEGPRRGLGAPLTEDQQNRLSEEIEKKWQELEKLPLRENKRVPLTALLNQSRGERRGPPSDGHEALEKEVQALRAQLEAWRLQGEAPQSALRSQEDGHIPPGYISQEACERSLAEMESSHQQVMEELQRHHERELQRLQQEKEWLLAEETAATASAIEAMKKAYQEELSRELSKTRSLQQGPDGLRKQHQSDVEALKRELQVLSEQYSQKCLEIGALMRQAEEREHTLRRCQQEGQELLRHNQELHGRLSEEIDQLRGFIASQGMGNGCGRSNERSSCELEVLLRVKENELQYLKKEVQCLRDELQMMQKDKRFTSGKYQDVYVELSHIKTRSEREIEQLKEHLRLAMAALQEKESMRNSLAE

T1: Huntingtin-interacting protein 1 (human) (human (endogenous in RA FLS)) (UniProt O00291)
T1 sequence: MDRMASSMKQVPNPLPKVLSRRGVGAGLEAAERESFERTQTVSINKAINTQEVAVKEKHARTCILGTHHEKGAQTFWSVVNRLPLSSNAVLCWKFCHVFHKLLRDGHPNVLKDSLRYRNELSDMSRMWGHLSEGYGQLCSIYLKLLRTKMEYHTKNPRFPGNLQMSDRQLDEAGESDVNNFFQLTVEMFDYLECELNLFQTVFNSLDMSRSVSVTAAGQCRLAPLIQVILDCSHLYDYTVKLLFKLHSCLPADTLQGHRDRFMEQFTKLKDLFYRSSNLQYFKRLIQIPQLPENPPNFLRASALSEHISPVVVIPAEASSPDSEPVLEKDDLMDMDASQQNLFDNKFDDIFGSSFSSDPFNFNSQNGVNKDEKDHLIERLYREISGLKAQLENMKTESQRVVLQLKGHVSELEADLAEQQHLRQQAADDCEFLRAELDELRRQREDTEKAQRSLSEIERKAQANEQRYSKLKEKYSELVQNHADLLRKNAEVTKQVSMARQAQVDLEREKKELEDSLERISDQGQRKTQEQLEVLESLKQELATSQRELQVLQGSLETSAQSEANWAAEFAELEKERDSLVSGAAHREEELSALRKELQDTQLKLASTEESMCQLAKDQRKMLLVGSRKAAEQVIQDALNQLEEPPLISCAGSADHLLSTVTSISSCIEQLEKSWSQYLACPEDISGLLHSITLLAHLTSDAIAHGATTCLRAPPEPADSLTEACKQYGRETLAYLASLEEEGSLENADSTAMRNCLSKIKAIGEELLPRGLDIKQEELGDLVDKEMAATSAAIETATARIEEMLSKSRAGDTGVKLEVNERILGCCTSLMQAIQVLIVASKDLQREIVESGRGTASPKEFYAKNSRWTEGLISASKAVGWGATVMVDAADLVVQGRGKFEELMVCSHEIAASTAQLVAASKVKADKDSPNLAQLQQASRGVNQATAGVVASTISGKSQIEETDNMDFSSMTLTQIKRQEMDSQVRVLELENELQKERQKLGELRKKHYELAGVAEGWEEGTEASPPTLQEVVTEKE


biological target: T1, Huntingtin-interacting protein 1 (human) (human (endogenous in RA FLS)); assay: co-IP; lysates of human RA FLS cell lines cultured in serum-free media, media with FBS or media with PDGF 100 ng/mL for 24 h; immunoprecipitation with anti-HIP1 antibody, Western blot with protein-specific antibodies

| Molecule | binding |
| --- | --- |
| TRIO and F-actin binding protein (human) (from UniProt Q9H2D6 1-2365) | binds |
| Kinesin-like protein KIF1C (human) (protein, UniProt O43896 1-1103) MAGASVKVAVRVRPFNARETSQDAKCVVSMQGNTTSIINPKQSKDAPKSFTFDYSYWSHTSTEDPQFASQQQVYRDIGEEMLLHAFEGYNVCIFAYGQTGAGKSYTMMGRQEPGQQGIVPQLCEDLFSRVSENQSAQLSYSVEVSYMEIYCERVRDLLNPKSRGSLRVREHPILGPYVQDLSKLAVTSYADIADLMDCGNKARTVAATNMNETSSRSHAVFTIVFTQRCHDQLTGLDSEKVSKISLVDLAGSERADSSGARGMRLKEGANINKSLTTLGKVISALADMQSKKRKSDFIPYRDSVLTWLLKENLGGNSRTAMIAALSPADINYEETLSTLRYADRTKQIRCNAIINEDPNARLIRELQEEVARLRELLMAQGLSASALEGLKTEEGSVRGALPAVSSPPAPVSPSSPTTHNGELEPSFSPNTESQIGPEEAMERLQETEKIIAELNETWEEKLRKTEALRMEREALLAEMGVAVREDGGTVGVFSPKKTPHLVNLNEDPLMSECLLYHIKDGVTRVGQVDMDIKLTGQFIREQHCLFRSIPQPDGEVVVTLEPCEGAETYVNGKLVTEPLVLKSGNRIVMGKNHVFRFNHPEQARLERERGVPPPPGPPSEPVDWNFAQKELLEQQGIDIKLEMEKRLQDLENQYRKEKEEADLLLEQQRLYADSDSGDDSDKRSCEESWRLISSLREQLPPTTVQTIVKRCGLPSSGKRRAPRRVYQIPQRRRLQGKDPRWATMADLKMQAVKEICYEVALADFRHGRAEIEALAALKMRELCRTYGKPDGPGDAWRAVARDVWDTVGEEEGGGAGSGGGSEEGARGAEVEDLRAHIDKLTGILQEVKLQNSSKDRELQALRDRMLRMERVIPLAQDHEDENEEGGEVPWAPPEGSEAAEEAAPSDRMPSARPPSPPLSSWERVSRLMEEDPAFRRGRLRWLKQEQLRLQGLQGSGGRGGGLRRPPARFVPPHDCKLRFPFKSNPQHRESWPGMGSGEAPTPLQPPEEVTPHPATPARRPPSPRRSHHPRRNSLDGGGRSRGAGSAQPEPQHFQPKKHNSYPQPPQPYPAQRPPGPRYPPYTTPPRMRRQRSAPDLKESGAAV | binds |
| 14-3-3 protein eta (human) (protein, UniProt Q04917 1-246) MGDREQLLQRARLAEQAERYDDMASAMKAVTELNEPLSNEDRNLLSVAYKNVVGARRSSWRVISSIEQKTMADGNEKKLEKVKAYREKIEKELETVCNDVLSLLDKFLIKNCNDFQYESKVFYLKMKGDYYRYLAEVASGEKKNSVVEASEAAYKEAFEISKEQMQPTHPIRLGLALNFSVFYYEIQNAPEQACLLAKQAFDDAIAELDTLNEDSYKDSTLIMQLLRDNLTLWTSDQQDEEAGEGN | binds |
